In patent US20240166733A1:
These are yes or no findings as the source states them, for the method shown. Some results given as binding are weak or reduced against the parent protein; the word gives no strength.

What was measured:
[1] = biological target: human A-FABP recombinant protein (human) (UniProt P15090); test: ELISA, FABP coated on plate, 6H2 at 1 µg/mL, OD450
[2] = biological target: T1, mouse A-FABP recombinant protein (mouse) (UniProt P04117); test: ELISA, FABP coated on plate, 6H2 at 1 µg/mL, OD450
T1 sequence (looked up): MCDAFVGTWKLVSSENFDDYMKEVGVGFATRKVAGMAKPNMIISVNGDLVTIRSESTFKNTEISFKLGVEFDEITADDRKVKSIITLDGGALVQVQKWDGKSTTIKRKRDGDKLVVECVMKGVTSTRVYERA

[3] = biological target: T1, mouse A-FABP recombinant protein (mouse); test: ELISA of serum A-FABP in MCAO mice treated with 6H2 or mouse IgG (binding inferred)

Measured: binding

B1: A-FABP neutralizing monoclonal antibody 6H2 (antibody, V domains shown)
VH: VKLQESGPELVKPGASVKIPCKASGYTFTDYNMDWVRQSRGKSLEWIGDINPYNGDTIYNQNFKGKATLTVDKSSTTAYLELRSLTSEDTAVYYCASGYGFWGQGTTVTVSS
VL: DIVMTQAPLSLPVSLGAQASISCRSSQSLVYINGNTYLHWYLQKPGQSPKLLIYKVSNRFSGVPDRFSGSGSGTDFTLKISRVEAEDLGVYFCSQSTHVPYTFGGGTKLEIK
binds: [1] | [2] | [3]
